This test in a line: qHTS Assay to Find Inhibitors of Chronic Active B-Cell Receptor Signaling. The following applies: ABC-DLBCL IkBa-CBG/CBR reporter, luminescence ratio (green luciferase fused to IkBa over red control in TMD8 lymphoma cells), 4 h. In outline:
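TMD8 human ABC-DLBCL cells with doxycycline-inducible IκBα–green luciferase fusion and unfused red luciferase, in 0.5% FBS medium; compounds up to 46 uM, 4 h at 37C. Green/red luminescence ratio, filter-overlap corrected, fitted to concentration-response curves.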

Where [1] appears, read: measured here: CBR red luminescence, cell number.
The mark [2] stands for this setting: measured here: IkBa-CBG green luminescence.

This is one part of the list. Shown are side measurements of this screen, not its main read-out; they come without a call. Most of these compounds were active or inconclusive in the main read-out, so they are no random draw. The note in brackets gives the kind of curve behind each potency; many fits are weak.

The term AC50 denotes the concentration at which the activity in the assay is half-maximal. With `Nc1cc2ccncc2c2ccccc12`, the AC50 under setting [1] was 1.26 µM [falling, full curve, poor fit].

As to `COc1ccc(-c2nnc(Nc3ccc(CC(N)=O)cc3)c3ccccc23)cc1`, the concentration at half-maximal activity (AC50) under setting [1] was 18.4 µM [falling, partial curve].

With `C/C(=N\Nc1cc(N2CCOCC2)nc(C)n1)c1ccc(F)cc1`, the AC50 under setting [1] was 5.62 µM [rising, single point].

In the case of `O=c1c2ccccc2c(-c2n[nH]c(=S)o2)nn1Cc1ccccc1`, under setting [1], the AC50 was 10 µM [falling, partial curve].

Regarding `CCC(Sc1nnnn1C)C(=O)Nc1ccc(C(C)=O)cc1` (configuration not stated), under setting [1], the AC50 is 23.1 µM [rising, partial curve, poor fit].

Turning to `CC(=O)Nc1ccc(C2=CC(=O)C[C@H](c3ccc(Cl)cc3)C2)cc1`, the concentration at half-maximal activity (AC50) under setting [1] was 32.6 µM [falling, partial curve, poor fit].

Regarding `CCOC(=O)COc1c(OC)cc(Cl)cc1C1Nc2ccccc2C(=O)N1c1ccccc1` (configuration not stated), under setting [1], the AC50 was 16.4 µM [falling, single point].

In the case of `CCOc1ccc2c(c1)C(C)=CC(C)(C)N2S(=O)(=O)c1ccc(C)cc1`, the AC50 is 3.16 µM [rising, full curve] under setting [1] and 3.55 µM [falling, full curve] under setting [2].

Turning to `C/C(=N\NC(=O)c1cccc(S(=O)(=O)N2CCOCC2)c1)c1ccco1`, the concentration at half-maximal activity (AC50) under setting [1] is 6.31 µM [rising, partial curve, poor fit].

As to `Cc1ccc(-c2cc(-c3ccc(F)cc3)n[nH]2)c(O)c1`, under setting [1], the AC50 was 17.8 µM [falling, single point].

As for `O=C1CCCC2=C1C(c1ccncc1)n1c(nc3ccccc31)N2` (configuration not stated), the half-maximal activity concentration (AC50) under setting [1] was 6.31 µM [falling, single point].

As for `O=C(NNC(=S)NC(=O)c1cccnc1)c1ccc(F)cc1`, the AC50 under setting [1] was 20 µM [falling, partial curve].

As to `COc1ccc(CCNC(=O)COC(=O)Cn2cnc3ccccc32)cc1OC`, the AC50 under setting [1] is 10 µM [rising, partial curve, poor fit].

As to `O=C(CSc1nc(Cc2ccccc2)nc2ccccc12)Nc1nc2c(s1)CCCC2`, the half-maximal activity concentration (AC50) under setting [1] was 32.6 µM [falling, single point].

Regarding `O=C(Cc1cccc2ccccc12)NNC(=O)Nc1ccc(Cl)cc1`, under setting [1], the AC50 is 0.447 µM [rising, partial curve, poor fit].

For the molecule `Fc1ccccc1/C=C1\CCCC2=C1Nc1ncnn1C2c1ccccc1F` (configuration not stated), the AC50 is 23.1 µM [falling, partial curve] under setting [1] and 25.9 µM [rising, partial curve, poor fit] under setting [2].

As to `CCOC(=O)C1=C(C)N(C)C(=O)NC1c1c(C)nn(-c2ccccc2)c1C` (configuration not stated), under setting [1], the half-maximal activity concentration (AC50) was 25.9 µM [rising, single point].

`Cc1ccccc1Cn1ccc(NC(=O)c2onc(C)c2Cl)n1`: the AC50 under setting [1] is 1.46 µM [falling, full curve, poor fit].

For the molecule `Cc1nn(Cc2ccccc2Cl)c(C)c1C(=O)NC1=NCCS1`, under setting [1], the AC50 was 0.251 µM [rising, full curve, poor fit].

As for `Oc1ccccc1-c1cc(-c2ccc(F)cc2)n[nH]1`, under setting [1], the half-maximal activity concentration (AC50) is 5.01 µM [falling, partial curve].

Regarding `Cc1c(C(=O)N2CCCC2)sc(NC(=O)c2ccco2)c1C#N`, the AC50 under setting [1] was 20.6 µM [falling, single point].

As for `CC(=O)OCC1(C)CN(c2ccccc2)N(C(C)=O)C1=O` (configuration not stated), under setting [1], the AC50 was 2.51 µM [falling, partial curve, poor fit].

In the case of `CCOC(=O)CC(=O)CSc1nnc2c(n1)[nH]c1ccccc12`, the AC50 under setting [1] is 2.82 µM [rising, partial curve, poor fit].

In the case of `CCCc1cnc(N2CCN(C(=O)c3ccccc3)CC2)nc1`, under setting [1], the AC50 is 7.08 µM [falling, partial curve, poor fit].

In the case of `Cc1ccc(OCC(=O)N2CC3(C)CC2CC(C)(C)C3)cc1` (configuration not stated), under setting [1], the AC50 was 46.1 µM [rising, single point].

Take `COc1ccc(O)c(-c2c(-c3ccc(Cl)cc3)n[nH]c2C)c1`: the AC50 under setting [1] is 28.2 µM [falling, single point].

For `CCN(CC(=O)NC(C)(C)C)C(=O)c1ccc2c(c1)S(=O)(=O)c1ccccc1C2=O`, the AC50 under setting [1] is 14.1 µM [rising, partial curve, poor fit].

As for `Cc1ccc(C(=O)NC(=S)N2CCN(c3cc(C)ccc3C)CC2)cc1`, the AC50 under setting [1] was 8.91 µM [rising, partial curve, poor fit].

On to `COc1ccc(/C=C/C(=O)Nc2cccc(S(=O)(=O)NC3=NCCCCC3)c2)cc1`, for which the concentration at half-maximal activity (AC50) under setting [1] is 8.91 µM [falling, partial curve, poor fit].

Take `Cc1ccccc1N(CC(=O)Nc1ccc(F)cc1)S(C)(=O)=O`: the AC50 under setting [1] was 15.8 µM [falling, partial curve, poor fit].

Consider `O=C1c2ccc(-c3ccc(F)cc3OCc3ccccc3)cc2S(=O)(=O)c2cccc(C(=O)N3CCN(c4ncc(Br)cn4)CC3)c21`, for which the half-maximal activity concentration (AC50) under setting [1] is 29.1 µM [rising, partial curve, poor fit].

For `COc1cccc(-c2noc(C3CCCN(C(=O)c4ccccc4OC)C3)n2)c1` (configuration not stated), under setting [1], the half-maximal activity concentration (AC50) is 15.8 µM [falling, single point].

As for `Cc1cc(/C=N/NC(=O)c2cccc(N(C)C)c2)c(C)n1-c1cc(C(=O)O)cc(C(=O)O)c1`, the concentration at half-maximal activity (AC50) under setting [1] was 14.1 µM [falling, partial curve, poor fit].

With `O=C(NCCCO)c1ccc2[nH]c3c(c2c1)CCCC3`, the half-maximal activity concentration (AC50) under setting [1] was 29.1 µM [rising, single point].

As to `COc1ccc2cc(C(=O)C3CCCN(Cc4cnc(N5CCOCC5)s4)C3)ccc2c1` (configuration not stated), under setting [1], the AC50 is 11.2 µM [falling, partial curve].

With `CC1CCN(CCCNC(=O)c2cc3c(Cl)nc4ccccc4c3s2)CC1`, the AC50 under setting [1] is 14.1 µM [falling, single point].

Consider `O=C1N=C(N2CCc3ccccc3C2)S/C1=C\c1ccc(O)cc1`, for which, under setting [1], the AC50 is 35.5 µM [falling, single point].

For `CCN(CC)N=Nc1ccc(C(=O)O)cc1`, under setting [1], the AC50 is 16.4 µM [falling, single point].

For the molecule `CCn1cc(/C=N\NC(=O)c2ccc(F)cc2)cn1`, under setting [1], the half-maximal activity concentration (AC50) is 29.1 µM [falling, single point].

As for `Cn1cc([N+](=O)[O-])c(C(=O)Nc2cc(Oc3cccnc3)cc([N+](=O)[O-])c2)n1`, the AC50 under setting [1] is 2.51 µM [falling, full curve, poor fit].

The values above are taken from PubChem BioAssay AID493014 (National Center for Advancing Translational Sciences (NCATS), 2011).
